{"source": "paper doi:10.1101/2025.07.20.665809", "about": "(bioRxiv, 2025)", "biological_target": "T1, Flag-Arc WT (Flag-hArc/Arg3.1) (human) (UniProt Q7LC44)", "T1 sequence": "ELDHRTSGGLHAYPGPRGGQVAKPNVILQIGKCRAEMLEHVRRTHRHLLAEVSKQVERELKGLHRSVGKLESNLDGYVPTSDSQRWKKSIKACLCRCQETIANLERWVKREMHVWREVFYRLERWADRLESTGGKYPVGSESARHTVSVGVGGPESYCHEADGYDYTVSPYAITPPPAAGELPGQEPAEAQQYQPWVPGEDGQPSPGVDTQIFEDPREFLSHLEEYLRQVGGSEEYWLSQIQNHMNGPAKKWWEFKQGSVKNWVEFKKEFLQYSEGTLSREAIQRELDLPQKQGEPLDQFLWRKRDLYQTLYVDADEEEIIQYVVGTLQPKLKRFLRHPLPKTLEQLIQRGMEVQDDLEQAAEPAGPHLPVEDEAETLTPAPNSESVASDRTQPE", "test": "co-IP", "note": "No constants are given. Whether binding was seen depends on the method and setting. Binding seen in cells or lysates may run through a third protein. Binding can be weak; no strength is given. Tags and fused reporters may be left off the sequences shown."}
{"substance": "GFP-Hsp70", "values": [{"measurement": "binding", "result": "binds"}]}
